Results are given in words; binding and its absence hold for the method and conditions named. Binding seen in cells or lysates may run through a third protein.
Target: T1, chromobox 4 (CBX4) (human (endogenous in HBE)) (UniProt O00257)
T1 sequence: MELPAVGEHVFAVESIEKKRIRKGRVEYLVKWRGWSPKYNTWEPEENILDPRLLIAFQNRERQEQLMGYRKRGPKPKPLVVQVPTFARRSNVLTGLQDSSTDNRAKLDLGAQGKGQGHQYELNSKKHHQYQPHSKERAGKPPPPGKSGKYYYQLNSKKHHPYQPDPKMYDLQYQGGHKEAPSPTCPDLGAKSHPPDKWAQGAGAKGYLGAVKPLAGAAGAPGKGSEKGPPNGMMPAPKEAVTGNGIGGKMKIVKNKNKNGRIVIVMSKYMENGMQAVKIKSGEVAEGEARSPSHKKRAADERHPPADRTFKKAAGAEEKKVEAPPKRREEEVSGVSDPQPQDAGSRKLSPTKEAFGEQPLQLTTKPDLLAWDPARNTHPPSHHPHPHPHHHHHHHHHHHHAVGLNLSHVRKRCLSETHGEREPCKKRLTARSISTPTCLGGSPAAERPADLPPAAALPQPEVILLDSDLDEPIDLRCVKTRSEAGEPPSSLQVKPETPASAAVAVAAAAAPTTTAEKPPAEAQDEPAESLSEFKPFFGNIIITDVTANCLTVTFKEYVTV
Experiment: co-IP

Sequences of proteins named here, by UniProt entry; tags and fusion partners are left off. Residues count along the entry.
UniProt Q969D9, residues 29-159: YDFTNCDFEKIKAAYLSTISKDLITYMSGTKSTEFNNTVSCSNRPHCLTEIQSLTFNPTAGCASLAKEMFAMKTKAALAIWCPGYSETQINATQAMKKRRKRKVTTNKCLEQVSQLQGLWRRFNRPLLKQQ

binding: no binding
Substance: long-form thymic stromal lymphopoietin (lfTSLP) (from UniProt Q969D9-1 29-159)

From article doi:10.1101/2021.05.24.445396
